# Test results as given in PubChem BioAssay AID587 (National Center for Advancing Translational Sciences (NCATS), 2007).
# The whole screen tested about 59,000 compounds, of which about 35 (0.06%) were called active. This list was built around the results that the source calls inconclusive (neither active nor inactive); the mix of calls is not that of the screen. Cut-off read from the data, not from the text of the source: active = max dye-equivalent concentration above about 10 nM; inconclusive = between about 1.1 nM and that limit; inactive = weaker than that.
# Assay: qHTS Assay for Spectroscopic Profiling in Texas Red Spectral Region
# Conditions: Compound fluorescence, Texas Red channel, 547/618 nm; stronger effect = higher value
# Procedure, shortened: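 Dye-equivalent concentrations come from scaling compound signal (ex 547, em 618 nm) to six Texas Red standard concentrations run on every plate, after 15 min room-temperature incubation in pH 8.0 Tris (100 mM).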
row,Compound,max dye-equivalent concentration
1,N#Cc1c(N)nc(SCC(=O)OCc2ccccc2)c(C#N)c1-c1ccco1,inconclusive: 1.5 nM
2,CC(=O)c1cccc(NC(=O)CC2SC(N3CCCCC3)=NC2=O)c1 (stereo unspecified),inconclusive: 2.4 nM
3,O=C(NCc1cccs1)C1CCCN(S(=O)(=O)c2ccc3c(c2)OCO3)C1 (stereo unspecified),inconclusive: 1.3 nM
4,CCc1cc2ccc(OC)cc2nc1SCC(=O)Nc1cc(C)on1,inconclusive: 1.1 nM
5,CC(C)C1N=C2c3ccccc3N=C(SCC(=O)c3ccc(O)c(O)c3)N2C1=O (stereo unspecified),inactive
6,CC(C)CCNC(=O)CN(CCN1CCOCC1)C(=O)Cn1nnc(-c2ccc(F)cc2)n1,inconclusive: 1.9 nM
7,Cc1ccc(NC(=O)c2noc3c2CCCCC3)cc1,inconclusive: 1.6 nM
8,C=CCn1c(SCC(=O)N2CCOCC2)nc2sc3c(c2c1=O)CCCC3,inconclusive: 1.6 nM
9,O=C1Nc2ccccc2C12OCC1(CO2)COC2(OC1)C(=O)Nc1ccccc12 (stereo unspecified),inconclusive: 1.3 nM
10,CCn1c(=O)c(C(=O)NCc2ccc(OC)cc2)c(O)c2ccccc21,inconclusive: 1.2 nM
11,O=C(NCc1cccs1)C1CCCN(S(=O)(=O)c2cccs2)C1 (stereo unspecified),inconclusive: 1.1 nM
12,CCOC(=O)C1CCN(C(=O)COC(=O)CCOc2ccc(C)cc2)CC1,inconclusive: 1.9 nM
13,CN(C)Cc1ccccc1-c1nc(NC2CCNCC2)c2ccccc2n1,inactive
14,CC(C)OC(=O)Nc1ccc(Oc2c(F)c(F)c(F)c(F)c2F)cc1,inconclusive: 1.2 nM
15,Cc1cc(C)c2cc(C#N)c(NCCCNC(=O)CCC(=O)O)nc2c1,inconclusive: 1.2 nM
16,Cc1csc(NC(=O)c2ccccc2O)n1,inconclusive: 1.2 nM
17,COC(=O)c1ccc(CSc2nc(-c3ccc(OC)cc3)nc3c2c(=O)n(C)c(=O)n3C)o1,inconclusive: 2.3 nM
18,NCCNCC1CCNCC1,inconclusive: 1.2 nM
19,N#Cc1ccc(OCC(=O)N2CCN(S(=O)(=O)c3cccs3)CC2)cc1,inconclusive: 1.4 nM
20,Cc1occc1-c1nnc(SCC(=O)N2CCOCC2)n1CCc1ccccc1,inconclusive: 1.2 nM
21,CC(=O)Nc1cccc(OCC(=O)NS(=O)(=O)c2ccc(C)cc2)c1,inconclusive: 1.1 nM
22,CCOC(=O)c1c(C)[nH]c(C(=O)CN2CC(C)OC(C)C2)c1C (stereo unspecified),inconclusive: 2.3 nM

# Six of these compounds, reformatted.
row | Compound | max dye-equivalent concentration
8 | C=CCn1c(SCC(=O)N2CCOCC2)nc2sc3c(c2c1=O)CCCC3 | inconclusive: 1.6 nM
13 | CN(C)Cc1ccccc1-c1nc(NC2CCNCC2)c2ccccc2n1 | inactive
15 | Cc1cc(C)c2cc(C#N)c(NCCCNC(=O)CCC(=O)O)nc2c1 | inconclusive: 1.2 nM
19 | N#Cc1ccc(OCC(=O)N2CCN(S(=O)(=O)c3cccs3)CC2)cc1 | inconclusive: 1.4 nM
20 | Cc1occc1-c1nnc(SCC(=O)N2CCOCC2)n1CCc1ccccc1 | inconclusive: 1.2 nM
21 | CC(=O)Nc1cccc(OCC(=O)NS(=O)(=O)c2ccc(C)cc2)c1 | inconclusive: 1.1 nM

# (listing goes on)

row,Compound,max dye-equivalent concentration
1,Cc1ccc2c(CC(=O)OC(C)C(=O)NCc3ccc4c(c3)OCO4)coc2c1 (stereo unspecified),inconclusive: 1.3 nM
2,O=C(c1ccccc1)N1CCCCC(Sc2nnnn2-c2ccccc2)C1=O (stereo unspecified),inconclusive: 1.1 nM
3,O=C(CC1(O)C(=O)N(Cc2ccccc2Cl)c2ccccc21)c1ccco1 (stereo unspecified),inconclusive: 1.1 nM
4,COc1ccc(C)cc1NC(=O)NC1CCN(Cc2ccccc2)CC1,inconclusive: 1.1 nM
5,Cc1ccc(Cn2ccc(NC(=O)c3c(-c4ccccc4Cl)noc3C)n2)cc1,inconclusive: 1.4 nM
6,C/C(=C\c1ccco1)C1Nc2cccc3cccc(c23)N1,inconclusive: 1.2 nM
7,O=C(NCc1ccc(F)cc1)C1CC(=O)N(CCc2ccccc2)C1 (stereo unspecified),inconclusive: 2 nM
8,CCOC(=O)CC1=C(C#N)C(c2cccnc2)C(C(=O)OCC)=C(N)O1 (stereo unspecified),inconclusive: 1.1 nM
9,O=C(CSc1ncc(-c2ccc(F)cc2)[nH]1)N1CCCCC1,inconclusive: 1.2 nM
10,CCOc1ccccc1NC(=O)Nc1cc(OC)ccc1OC,inconclusive: 1.6 nM
11,CC(C)C1=C[C@@]23CC[C@@H]4[C@](C)(CCC[C@@]4(C)C(=O)O)[C@@H]2C[C@@H]1[C@@H](C(=O)O)[C@@H]3C(=O)O,inconclusive: 1.5 nM
12,c1ccc2c(c1)CCN(c1nc3cc4c(cc3s1)OCCO4)C2,inconclusive: 1.3 nM
13,CCCC(=O)N1CCN(c2ccc(NC(=O)c3cc4ccccc4o3)cc2Cl)CC1,inconclusive: 1.1 nM
14,Cc1noc(C)c1C(=O)OCC(=O)NCCC1=CCCCC1,inconclusive: 1.7 nM
15,Cc1c(N=C2Nc3cccc4cccc2c34)c(=O)n(-c2ccccc2)n1C,inactive
16,O=C(O)c1cccnc1SCc1ccccc1,inconclusive: 1.1 nM
17,O=C(c1cccs1)N(Cc1nc2sc3c(c2c(=O)[nH]1)CCCC3)C1CCCC1,inconclusive: 1.7 nM
18,Cc1ccc(-n2ncc3c(NCc4ccccn4)ncnc32)c(C)c1,inconclusive: 1.4 nM
19,CC(C)c1ccc(OCC(=O)NCc2ccco2)cc1,inconclusive: 1.9 nM
20,CCOc1ccc(Nc2nc(NCCN3CCOCC3)nc(OC)n2)cc1,inconclusive: 1.2 nM
21,Cc1ccc(SCCC(=O)N2CCC(C(N)=O)CC2)cc1,inconclusive: 1.2 nM
22,COC(=O)C1CCN(c2cc(=O)n(-c3ccccc3Cl)c(=O)[nH]2)CC1,inconclusive: 1.2 nM

row,Compound,max dye-equivalent concentration
1,CC1CCCC(C)N1C(=O)CN1CCN(c2nc(-c3ccc(F)cc3)cs2)CC1 (stereo unspecified),inconclusive: 1.4 nM
2,Cc1nc(N2CCN(C(c3ccccc3)c3ccccc3)CC2)nc2c1C(=O)CCC2,inconclusive: 1.7 nM
3,CCCC(c1nnnn1Cc1ccccc1)N1CCC(C(N)=O)CC1 (stereo unspecified),inconclusive: 1.3 nM
4,NC(N)=NCCSSCCN=C(N)N,inconclusive: 1.2 nM
5,Cc1nnc(NC(=O)c2c(F)c(F)c(F)c(F)c2F)s1,inconclusive: 2 nM
6,CCCc1nc(SCC(=O)N2CCCC2)c2ccccc2n1,inconclusive: 2.7 nM
7,COc1ncc2nc(-c3ccc(F)cc3)c(=O)n(C[C@H]3CCCO3)c2n1,inactive
8,COc1ccc(S(=O)(=O)N(C)CC(=O)Nc2ccc3c(c2)OCO3)cc1OC,inconclusive: 1.4 nM
9,O=C1CCCC2=C1C(Cc1ccccc1)C1=C(CCCC1=O)O2,inconclusive: 1.2 nM
10,O=C(Nn1cnnc1)c1ccccc1CCc1ccccc1,inconclusive: 1.5 nM
11,CCN1C(=O)/C(=C2\SC(=S)N(CCCOC)C2=O)c2ccccc21,inconclusive: 1.1 nM
12,CC(C)(C)C(=O)CNS(=O)(=O)c1ccc(S(=O)(=O)NC2CCCC2)cc1,inconclusive: 1.4 nM
13,CN(C(=O)c1ccccc1Cl)C1CCCCC1,inconclusive: 1.5 nM
14,CC(=O)c1cccc(NC(=O)c2cc(-n3cnnc3)ccc2Cl)c1,inconclusive: 1.4 nM
15,Nc1nc(Nc2ccccc2)nc2c1ncn2[C@@H]1O[C@@H](CO)[C@H](O)[C@@H]1O,inconclusive: 1.2 nM
16,O=C(CC(NS(=O)(=O)c1ccc(Cl)cc1)c1ccco1)NC1CCCC1 (stereo unspecified),inconclusive: 1.2 nM
17,COc1ccccc1NC(=O)c1cc2ccccc2o/c1=N\O,inactive
18,c1cc(N2CCCC2)ccc1C(c1nnnn1C1CCCCC1)N1CCOCC1 (stereo unspecified),inconclusive: 1.3 nM
19,NC(=O)CSc1nc2ccccc2n1Cc1ccccc1F,inconclusive: 1.3 nM
20,COCc1nnc(NC(=O)c2sc3ccccc3c2Cl)s1,inconclusive: 1.1 nM
21,COc1ccc(C(=O)N2CCC3(CCN(Cc4ccccc4OC)CC3)CC2)cc1,inactive
22,CCCCOc1ccc(C(=O)N2CCC(C)CC2)cc1,inconclusive: 1.8 nM

row,Compound,max dye-equivalent concentration
1,CCOC(=O)c1oc2ccccc2c1NC(=O)c1ccc(S(=O)(=O)N2CCCC2)cc1,inconclusive: 2.7 nM
2,CN(C)Cc1ccccc1-c1cc(N(C)C)ncn1,inactive
3,CCC(c1nnnn1CCOC)N1CCN(C(=O)c2ccco2)CC1 (stereo unspecified),inconclusive: 1.3 nM
4,COC(=O)c1cc(NC(=O)c2c(Cl)nc3sccn23)cc(C(=O)OC)c1,inconclusive: 1.1 nM
5,O=C(COC(=O)c1cccnc1)Nc1cccc(Cl)c1,inconclusive: 1.2 nM
6,CCCCNC(=O)Nc1cnn(CC)c1C(N)=O,inconclusive: 1.2 nM
7,CCC(=O)c1ccc(N2CCN(C(=O)c3ccc(Br)cc3)CC2)c(F)c1,inconclusive: 1.7 nM
8,CCOc1ccc(N2C(=O)CC(N(O)c3ccccc3)C2=O)cc1 (stereo unspecified),inconclusive: 1.9 nM
9,Cc1ccc(NC(=O)N(CCCN2CCOCC2)Cc2cc3cc4c(cc3[nH]c2=O)OCO4)cc1,inconclusive: 1.6 nM
10,CCC1CCCCN1CC(=O)c1c(C)[nH]c2ccccc12 (stereo unspecified),inconclusive: 1.3 nM
11,COCc1nnc(SCC(=O)NC(C)c2ccccc2)n1-c1ccccc1 (stereo unspecified),inconclusive: 1.1 nM
12,CCCCN(c1ccccc1)c1ncnc2c1cnn2C,inconclusive: 1.2 nM
13,O=C(NC1CCCCC1)c1ccc(N2CCCC2=O)cc1,inconclusive: 1.1 nM
14,Nc1c(C(=O)Nc2ccccc2)sc2nc(-c3ccco3)ccc12,inconclusive: 1.3 nM
15,CN(C)CCCNc1ncnc2nc[nH]c12,inconclusive: 1.1 nM
16,O=C(Cn1c(=O)oc2ccccc21)Nc1ccc(S(=O)(=O)N2CCCCC2)cc1,inconclusive: 1.1 nM
17,COc1ccc(S(=O)(=O)C(C#N)c2nc3ccccc3nc2N2CCCCC2)cc1 (stereo unspecified),inactive
18,CC12CC3CC(C)(C1)CC(C(=O)Nc1nn[nH]n1)(C3)C2,inconclusive: 1.2 nM
19,COc1ccc(Nc2cc(C(=O)NCCCN3CCN(C)CC3)c3ccccc3n2)cc1,inconclusive: 1.3 nM
20,O=C(CCCNS(=O)(=O)c1cccc2nsnc12)NC1CCCCC1,inconclusive: 1.2 nM
